The assay is described as follows: qHTS Assay for Lipid Storage Modulators in Drosophila S3 Cells.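 On cell number change: cells counted by Cell Tracker Red CMTPX staining in the red channel.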 As to conditions: BODIPY lipid droplet fluorescence, 18-24 h; for cell number change: measured here: cell count max response, cells fed with added oleic acid. The method in brief:
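Drosophila S3 cells loaded with oleic acid (400 uM, as added) and compounds at several concentrations; lipid droplets imaged by 488-nm laser-scanning cytometry, 500–530 nm intensity and object ratio to cell channel. Percent activity normalized to 20 uM Triacsin C.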
For orientation: In qHTS, concentration-response curves come from the screen itself.

Where [1] appears, read: measured here: cell number channel AC50, cells fed with added oleic acid.
Setting [2] is: measured here: lipid fluorescence (Fed channel) AC50, cells fed with added oleic acid.

This is one part of the list. Further columns of the screen follow, without active or inactive calls. The list favours compounds with an active or inconclusive main result. The note in brackets gives the kind of curve behind each potency; many fits are weak.

The AC50 is the concentration at which the activity in the assay is half-maximal. Higher therefore signals weaker potency. As to `COC(=O)Cc1ccc2sc(-c3ccccc3)nc2c1`, the cell number change turned out to be 52.6%. Also, the AC50 under setting [1] was 29.1 µM [rising, single point]. As for `O=C(COC(=O)C1CCN(c2ccc(C(F)(F)F)cn2)CC1)Nc1ccc(F)cc1[N+](=O)[O-]`, the cell number change was 24.5%.

Consider `COc1cc2c(cc1OC)-c1cc3ccc4c(c3c[n+]1CC2)OCO4`, for which the cell number change came to 8.65%. Under setting [2], the AC50 is 1.03 µM [rising, full curve, poor fit]. Regarding `O=C(CCNS(=O)(=O)c1ccccc1C(F)(F)F)NCc1ccc2c(c1)OCO2`, the AC50 under setting [1] is 1.64 µM [rising, partial curve] and the AC50 under setting [2] is 1.46 µM [rising, partial curve, poor fit]. `Cc1cc(C(=O)NCC(=O)OCC(=O)N(C)C2CCCCC2)ccc1[N+](=O)[O-]`: the cell number change was 10.5%.

As for `NC(=O)c1c(NC(=O)C(=O)N2CCOCC2)sc2c1CCC2`, the cell number change was -11.1%. The AC50 under setting [2] is 5.17 µM [rising, single point]. For `CS(=O)(=O)N(CC(=O)O)c1cc(Cl)cc(Cl)c1`, the cell number change is -18.8%. On to `O=C(CN1CCN(Cc2ccc(Cl)cc2)CC1)N/N=C/C=C/c1ccccc1[N+](=O)[O-]`, for which the cell number change was 44.6%. Under setting [1], the AC50 is 2.91 µM [rising, partial curve]. Take `Cn1nc(CC(=O)NCc2ccc(F)cc2)c2ccccc2c1=O`: the cell number change is -18.6%. The AC50 under setting [2] is 29.1 µM [falling, single point].

Consider `Cc1ccccc1S(=O)Cc1ccc(C(=O)NCCN2CCOCC2)o1` (stereo not drawn), for which the cell number change was 1.47%. For the same molecule, the AC50 under setting [2] was 4.11 µM [rising, full curve]. As for `CCN1CCN(Cc2ccc3c(c2)Cc2ccccc2-3)CC1`, the cell number change was 10.8%. On the same count and under the same terms, under `O=C(CCCc1nc(-c2ccccc2)no1)NC1CCCC1` stands -2.61%. In the case of `COC(=O)C1C/C(=N\NS(=O)(=O)c2ccc(C)cc2)c2ccsc2C1` (stereo not drawn), the cell number change stood at 2.51%. Also, the AC50 under setting [2] was 11.6 µM [rising, single point]. For the molecule `CCC(=O)N1CCc2cc(S(=O)(=O)N3CCN(c4cc(C)ccc4C)CC3)ccc21`, the cell number change is -1.7%. Under setting [2], the concentration at half-maximal activity (AC50) is 29.1 µM [rising, single point]. Regarding `CN(CCO)c1cnccn1`, the cell number change was -52%. The AC50 under setting [1] was 29.1 µM [falling, single point]. The half-maximal activity concentration (AC50) under setting [2] was 23.1 µM [falling, single point]. Consider `Cc1cc(C)n2nc(SCc3cc(=O)oc4ccc5ccccc5c34)nc2n1`, for which the cell number change is -11.3%. Regarding `C[C@]12CCC(O)CC1CCC1C2CC[C@]2(C)C(c3cc(C(F)(F)F)n[nH]3)CCC12` (stereo partly drawn), the cell number change is -0.863%. Moreover, the AC50 under setting [2] was 2.06 µM [rising, partial curve]. With `O=C1CN(C(=O)NCC(=O)N2CCCC2)c2ccccc2N1`, the cell number change was determined as 7.93%. Consider `COc1ccccc1Cc1noc(COc2cccc(C)c2C)n1`, for which the AC50 under setting [1] is 3.66 µM [rising, single point]. Consider `CC(C)(C)SC(=O)CC1NS(=O)(=O)OCC1NC(=O)OCC(Cl)(Cl)Cl` (stereo not drawn), for which the cell number change is -10.7%. Also, under setting [2], the AC50 is 29.1 µM [rising, single point]. Turning to `COc1ccc(Sc2ncnc3onc(C)c23)cc1`, the cell number change is -40.2%. Moreover, the AC50 under setting [1] was 1.3 µM [falling, full curve, poor fit]. The AC50 under setting [2] is 1.03 µM [falling, full curve].

In the case of `S=C(NCCc1ccccc1)N1CCN(C(c2ccccc2)c2ccccc2)CC1`, the cell number change was determined as 15.3%. Under setting [1], the AC50 was 0.92 µM [falling, full curve]. With `C[C@H](NC(=O)c1ccco1)C(=O)NCc1cccs1`, the cell number change is -8.93%. Also, the AC50 under setting [2] is 0.164 µM [rising, full curve, poor fit].

On to `C=CCn1c(=O)/c(=C\c2ccccn2)s/c1=C(/C#N)C(=O)NCC1CCCO1` (stereo not drawn), for which the AC50 under setting [2] was 0.58 µM [rising, single point].

Take `COCCNc1c2c(c(C#N)c3nc4ccccc4n13)CCCC2`: the cell number change is 11.2%. The concentration at half-maximal activity (AC50) under setting [1] was 0.00411 µM [rising, full curve, poor fit]. On to `O=C(NC1CCCCCC1)c1ccc(CS(=O)(=O)Cc2ccc(F)cc2)o1`, for which the cell number change is -21.5%. Besides, the AC50 under setting [2] was 23.1 µM [falling, partial curve]. `COCCCn1c(=O)/c(=C\c2cccc(OC)c2OC)s/c1=C(/C#N)C(=O)Nc1ccc(C(=O)O)cc1`: the cell number change was found to be 19.7%. Under setting [2], the AC50 is 2.06 µM [falling, single point]. As for `Cc1cc(NS(=O)(=O)c2ccc(NC(=O)C(CC(C)C)N3C(=O)c4ccccc4C3=O)cc2)nc(C)n1` (stereo not drawn), the cell number change was -20.6%. Moreover, the AC50 under setting [2] is 16.4 µM [rising, single point]. Consider `O=C1C=C(c2ccccc2Oc2ccccc2)C[C@@H](c2ccc3c(c2)OCO3)C1`, for which the cell number change is 1.1%. The AC50 under setting [2] is 25.9 µM [falling, single point].

Regarding `Cc1ccc(C)c(OCc2cc(C(=O)N3CCC(N4CCCC(O)C4)CC3)no2)c1` (stereo not drawn), the cell number change was determined as 22.9%. In addition, the AC50 under setting [2] was 29.1 µM [falling, single point]. With `O=C(CNS(=O)(=O)Cc1ccccc1)NCc1ccccc1`, the cell number change was -21.1%. Also, the AC50 under setting [2] was 0.1 µM [rising, full curve, poor fit].

On to `CC1OC(Nc2ccc(N=Nc3ccccc3)cc2)C(O)C(O)C1O` (stereo not drawn), for which the AC50 under setting [1] is 0.517 µM [rising, single point].

Turning to `CCCCOc1ccc(C(=O)Nc2ccc(N3CCN(C(C)=O)CC3)cc2)cc1`, the cell number change amounted to 2.84%. Besides, under setting [1], the AC50 was 6.51 µM [rising, single point]. The AC50 under setting [2] is 2.06 µM [rising, full curve]. As for `Cc1c(C(=O)N2CCN(S(=O)(=O)c3ccc(F)cc3)CC2)oc2ccccc12`, under setting [2], the AC50 is 0.651 µM [rising, full curve, poor fit]. `Cc1ccc2nc(SCC(=O)NCc3ccco3)[nH]c2c1`: the cell number change is 60.2%. Moreover, under setting [1], the concentration at half-maximal activity (AC50) is 18.4 µM [rising, partial curve]. With `O=C(OCC(=O)N1CCOCC1)c1ccc(Cl)nc1`, the cell number change amounted to 40.3%. Further, the AC50 under setting [2] is 25.9 µM [rising, partial curve, poor fit]. For the molecule `COc1cccc(N2CCN(C(=O)c3ccc(=O)oc3)CC2C)c1` (stereo not drawn), the AC50 reads like this: under setting [1], 1.16 µM [falling, single point]; under setting [2], 0.92 µM [falling, single point]. Turning to `O=S(=O)(c1ccc2nc(Nc3ccccc3)ccc2c1)N1CCCCC1`, the cell number change was 12.6%. The concentration at half-maximal activity (AC50) under setting [1] is 0.82 µM [rising, full curve]. The AC50 under setting [2] is 0.651 µM [rising, full curve, poor fit]. `COc1ccc(CCC(=O)Nc2ccc(Cn3ccnc3)cc2)cc1`: the cell number change stood at 9.8%. `CCOc1ccc(NC(=O)COC(=O)c2c(OC)cccc2OC)cc1`: the cell number change was -13%. The AC50 under setting [2] is 0.82 µM [rising, partial curve, poor fit].

Consider `CCCOc1ccc2[nH]cc(C(=O)O)c(=O)c2c1`, for which the cell number change came out at 35.9%. For the same molecule, under setting [1], the AC50 is 23.1 µM [rising, single point]. As for `COc1ccccc1C(=O)NCCC(=O)N(C)CC(=O)Nc1ccc(N2CCOCC2)cc1`, the cell number change amounted to 26.2%. Moreover, the concentration at half-maximal activity (AC50) under setting [2] was 11.6 µM [rising, partial curve]. As for `CCOc1ccc(CNC(=O)C(CC)n2nc(C)n3c(cc4occc43)c2=O)cc1OC` (stereo not drawn), the cell number change is 66.3%. Also, the AC50 under setting [1] is 18.4 µM [rising, single point]. As to `COC(=O)Nc1nc(-c2cc(Cl)ccc2Cl)cs1`, under setting [1], the AC50 was 6.51 µM [rising, partial curve, poor fit].

Regarding `O=C1c2ccccc2C(=O)N1Cc1ccc2c(c1)OCO2`, the cell number change is 10.8%. Further, the AC50 under setting [2] is 0.164 µM [rising, full curve]. As for `O=C1c2ccccc2C(O)N1Cc1ccccc1` (stereo not drawn), the half-maximal activity concentration (AC50) under setting [1] is 0.103 µM [falling, full curve, poor fit].

For the molecule `CCc1nnc(NC(=O)c2ccc(S(=O)(=O)N3CCCC3)cc2)s1`, the cell number change is -33.3%. For the same molecule, under setting [1], the concentration at half-maximal activity (AC50) was 7.31 µM [falling, partial curve, poor fit]. For `COc1ccc(N2CCc3c(C)nc4c(OC)cccc4c32)cc1`, the cell number change stood at 1.03%. Also, the AC50 under setting [2] is 0.731 µM [rising, partial curve, poor fit]. On to `CC(C)c1cccc(C(C)C)c1NC(=O)COC(=O)C1=COCCO1`, for which the cell number change was -43.3%. Besides, the AC50 under setting [1] was 29.1 µM [falling, single point]. Besides, the AC50 under setting [2] was 29.1 µM [falling, single point].

As to `CCOc1cccc(CN2CCC(Oc3ccc(C(=O)N4CCCC4)cc3)CC2)c1`, the cell number change stood at 20%. Also, the AC50 under setting [1] is 4.11 µM [rising, single point]. Consider `Cc1cc(C(=O)NC2CC(C)(C)Cc3c2cnn3-c2ccccc2)n[nH]1` (stereo not drawn), for which the cell number change was found to be 20.8%. Also, the AC50 under setting [1] was 0.0731 µM [rising, full curve, poor fit]. For `CC(C)(C)OC(=O)CNC(=O)c1[nH]cnc1C(=O)NC1CCN(C(=O)OC(C)(C)C)CC1`, the cell number change is -3.89%. For the same molecule, the AC50 under setting [2] was 0.58 µM [falling, partial curve, poor fit]. Consider `Cc1nn(-c2ccccc2)c(Cl)c1CN(C(=O)CCl)c1cccc2ccccc12`, for which the cell number change is -2.28%. Also, under setting [2], the AC50 is 29.1 µM [falling, single point]. In the case of `CC1CCCCN1C(=O)COC(=O)c1n[nH]c2ccccc12` (stereo not drawn), the cell number change amounted to 32.3%. In addition, under setting [1], the concentration at half-maximal activity (AC50) is 29.1 µM [rising, single point]. In addition, under setting [2], the AC50 was 3.66 µM [rising, full curve]. Regarding `Cc1ccc(N(CC(=O)NCC2CCCO2)C(=O)CCC(=O)Nc2nccs2)cc1C` (stereo not drawn), the cell number change worked out at 6.76%. Further, the AC50 under setting [2] was 2.59 µM [falling, full curve, poor fit]. On to `CCNC(=O)/C(=C/c1ccc2c(c1)OCO2)NC(=O)c1ccc(Br)cc1`, for which the cell number change was -0.996%. In addition, the AC50 under setting [2] was 18.4 µM [rising, partial curve, poor fit]. As to `COc1cc(S(=O)(=O)NCCCn2ccnc2)ccc1F`, the cell number change is 12.6%. Moreover, the AC50 under setting [2] was 5.8 µM [rising, full curve].

As for `COc1ccccc1-c1nnc(SCC(=O)NCc2c(C)c(Cl)cc(C(C)C)c2O)o1`, the cell number change was -54.1%. Moreover, under setting [1], the AC50 is 29.1 µM [falling, single point]. The AC50 under setting [2] is 29.1 µM [falling, single point]. Regarding `CN(C)S(=O)(=O)N1CCN(C(=O)c2cccc(Br)c2)CC1`, the cell number change was -18.7%. In addition, under setting [1], the AC50 was 0.00517 µM [falling, full curve, poor fit]. For the same molecule, under setting [2], the AC50 was 3.66 µM [falling, single point].

With `Cc1cc(Cl)nc(Cl)c1C(=O)N1CCOCC1`, the cell number change is -16.8%.

Source of the values: PubChem BioAssay AID2685 (National Center for Advancing Translational Sciences (NCATS), 2010).
